A: 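Whole-parasite assay of Trypanosoma brucei over 72 hours; the read-out is not stated. Compounds at 30 µM. The record gives no direction; compounds that gave an IC50 in retests scored well above the rest, so higher reads as stronger inhibition. Values scatter widely below zero; nearly all retest evidence comes from the higher of the two concentrations used. Size under these conditions: about 64,000 compounds, about 940 of them at 50% or above in at least one test.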
B: 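Assay of Toxoplasma gondii numbers, read through their beta-galactosidase reporter with a colour substrate. Compounds at 10 µM. The record gives no direction; the compounds picked for IC50 retests had high values, so higher reads as fewer parasites. Size under these conditions: about 67,000 compounds, about 260 of them at 50% or above in at least one test.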
C: 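Cell assay of Leishmania donovani living inside macrophages; the read-out is not stated. Tested at 30 µM. Direction is inferred from retests: higher values go with stronger inhibition. About 69,000 compounds were tested under these conditions; 1.5% (about 1,000) showed 50% or more at least once.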

Values are the deposited “Percent Effect”, in %.
How 0% and 100% were set is not recorded. Most values in the screen are low, and negative values occur.
The compounds are a random part of those screened.
Two or more numbers in one place are separate tests of the same structure; such repeats can differ widely.
A dash means the value is not listed here; it may have been measured.

Compound,A,B,C
CC(NC(=O)CCn1cccn1)c1cccs1 (stereo not shown),-16.44,-,3.962
O=C(CCn1ccnc1)N1CC[C@H](Oc2ccc(F)cc2)[C@@H](O)CC1,-3.792,-9.679,3.216
CNc1cc(C)nc(N2C[C@H](NC(=O)C3CCOCC3)[C@@H](C3CC3)C2)n1,-23.63,-2.136,-19.84
COc1cccc(CNc2cnn(CC(F)F)c2)c1,-16.06,4.22,14.66
Cc1ccc(CC(=O)N2CCCn3nnc(Cn4cccn4)c3C2)cc1,-11.02,-2.604,-1.162
COc1ccnc(N2CCC(OCCN3CCCCC3)C2)n1 (stereo not shown),-,2.325,-16.95
O=C(COCCc1ccccc1)N1CCCC(n2cncn2)C1 (stereo not shown),-17.52,-0.3639,-12.7
CN(C)c1ncc(-c2cccc(F)c2)c(C2CNCCO2)n1.Cl (stereo not shown),-3.36,-14.62,-2.457
CN(Cc1nnc2ccccn12)C(=O)CC1CCCCC1,-21.88,5.609,12.56
Cc1cnn(CC2CCCCN2Cc2nnc(-c3ccco3)o2)c1 (stereo not shown),20.65,6.605,12.57
Cc1nccn1CC(=O)N1CC(Cc2nccc3ccn(C)c23)C1,-28.54,1.75,0.7498
CN(C)Cc1nc(C(=O)N2CCCC(COc3ccc(F)cc3)C2)cs1 (stereo not shown),-49.62,20.49,5.553
COCC(=O)N1Cc2nccn2CC(Cn2ncccc2=O)C1 (stereo not shown),-11.48,7.098,0.3994
OCCCN1CCc2[nH]nc(C(c3ccccc3)c3ccccc3)c2C1,-58.98,13.61,24.98
O=C(c1ccc(F)cc1)N(CCCO)S(=O)(=O)c1cccs1,0.7413,4.843,5.153
O=C(c1cnc(NCCC2CCCO2)c(Cl)c1)N1CCCCC1 (stereo not shown),13.24,7.287,20.88
O=C(O)C(F)(F)F.[H][C@]12C[C@H](C(=O)NC)N(S(C)(=O)=O)[C@@]1([H])CN(C(=O)c1cccnc1)C2,-10.62,17.09,-5.871
CC(C)(C)c1oc(C(N)=O)cc1CN1CCCCC(N)C1 (stereo not shown),-24.74,-8.848,-25.02
C[C@@H]1CN(c2cccnn2)CC[C@@]1(O)C1CCOCC1,5.192,-13.16,16.74
CN(CC(=O)N1CCC(N(C)c2ccccc2)CC1)c1cnccn1,-,5.594,23.93
CSc1ccc(CNC(c2ccc(F)cc2)c2nccn2C)cc1 (stereo not shown),-,23.85,44.79
CS(=O)(=O)CCCSc1cccc(C#N)c1,-2.864,4.425,5.797
Cc1cnn(CCC(=O)N2CCCC(c3nc(C)c(C)s3)C2)c1 (stereo not shown),-7.036,-5.789,1.779
CCCN1CCC(CNC(=O)C2(c3cc(C)cc(C)c3)CCC2)C1 (stereo not shown),28.15,-10.37,20.01
O=C1NCCCCC1NC(=O)C1(c2cccc(C(F)(F)F)c2)CC1 (stereo not shown),-39.6,0.1003,-45.99
CC1CN(C)c2ccccc2CN1C(=O)c1ccoc1 (stereo not shown),-38.28,0.6844,7.215
CN1CCN(Cc2cn3c(n2)CN(C(=O)c2ccccn2)CC3)CC1.O=C(O)C(F)(F)F.O=C(O)C(F)(F)F.O=C(O)C(F)(F)F,16.69,1.724,25.72
CCOCCN1CCC(c2cnccn2)CC1,-14.67,17.86,33.82
Cc1nn(C)c(Cl)c1CNCc1ccc(OCC(N)=O)cc1,-1.043,2.731,30.76
Cc1nc(C(C)NC(=O)c2cn(C/C=C/c3ccccc3)nn2)n[nH]1 (stereo not shown),-5.245,-4.832,5.915
O=C1NCCCC[C@@H]1Nc1ccc(-c2nc(C3CC3)no2)cn1,-8.963,-8.396,16.43
CS(=O)(=O)NCCNC(=O)Cc1ccc(Br)s1,12.68,-2.277,13.03
COCc1nc(C(=O)N2CCCC2c2cc(C)no2)cs1 (stereo not shown),0.44,15.66,14.75
CCN(CC)c1nc(Nc2cccc(C(=O)O)c2)nc2ccccc12,-36.54,-21.05,3.255
Cc1cc(NC2CCN(c3ccc(F)cc3)CC2)n2nc(C)cc2n1,-22.89,9.875,-7.637
[H][C@@]12CCN(Cc3scnc3C)C[C@]1(C(=O)N(C)C)CCO2,-34.28,-2.032,15.24 and 11.76
CCS(=O)(=O)N1CCC2(CC1)CN(C(=O)N(C)C)Cc1ccccc12,-20.5,3.549,4.528
O=C(Cc1cccc2cccnc12)N1CCCN(c2cccnn2)CC1,11.24,0.8107,21.81
CCOc1ccccc1-n1c(CNC)n[nH]c1=O,-35.79,1.218,-9.469
O=C(CC1CC2(CCN(CC3CC3)CC2)c2ccccc21)NC1CCC1.O=C(O)C(F)(F)F (stereo not shown),-22.62,3.623,27.87
COc1cccc2c1N(Cc1noc(C(C)(C)C)n1)CCC2,-72.92,-6.376,10.08
COc1cc(CNCC(O)c2ccc(C)cc2)cc2c1OCO2.Cl (stereo not shown),100.7,22.05,8.302
CCOCC(=O)N(Cc1ccccn1)Cc1ccccc1C,24,-5.177,-4.52
Cn1cc(CNC(=O)C2COCC(=O)N2Cc2ccccc2)cn1 (stereo not shown),-27.08,-1.218,-15.59
O=C(COc1ccccc1F)N1CCCCC1c1ccn2ccnc2n1 (stereo not shown),-11.94,10.9,-19.01 and -4.784
CC(C)c1nc(CN(C)S(=O)(=O)c2cccs2)cs1,-46.23,-19.15,-8.828
CO[C@H]1CN(C(C)C)C[C@@H]1NC(=O)c1cc(COc2ccccc2)[nH]n1,17.2,-5.476,23.42
c1ccc(-c2noc(CN3CCC(c4ccn[nH]4)CC3)n2)cc1,6.595,-6.694,52.27
CC(C)(CNc1ccc(C#N)c(C(F)(F)F)c1)C(N)=O,7.184,-9.16,20.21
CCCC(=O)N(C)C(c1cccc(F)c1)c1ccccn1 (stereo not shown),-,7.295,-0.785
CCc1nc(CN2CCN(C(=O)C3(C#N)CCCCC3)CC2)cs1,7.418,3.797,-16.58
N#Cc1c(CN2CCCCC2Cn2cncn2)cn2ccccc12 (stereo not shown),-,2.632,-0.3662
CCc1c(C)sc2ncnc(N3CCN(C4CCOCC4)CC3)c12,-7.951,4.331,8.997
CCCC(C)(C)NC(=O)CCN1CCOC1=O,0.09845,2.911,-18.15
CNS(=O)(=O)CC(=O)N(Cc1ccccc1)c1ccc(C)cc1,-32.99,9.212,-19.13

Some entries from above, unchanged:

Compound,A,B,C
c1ccc(-c2noc(CN3CCC(c4ccn[nH]4)CC3)n2)cc1,6.595,-6.694,52.27
Cc1cnn(CC2CCCCN2Cc2nnc(-c3ccco3)o2)c1 (stereo not shown),20.65,6.605,12.57
O=C(COCCc1ccccc1)N1CCCC(n2cncn2)C1 (stereo not shown),-17.52,-0.3639,-12.7
CC(C)c1nc(CN(C)S(=O)(=O)c2cccs2)cs1,-46.23,-19.15,-8.828
COc1cccc2c1N(Cc1noc(C(C)(C)C)n1)CCC2,-72.92,-6.376,10.08

From ChEMBL document CHEMBL3988442, “University of Dundee, Small-Polar-MMV Screening Library” (2021).